Measurements reported in PubChem BioAssay AID504764 (Drosophila RNAi Screening Center, 2011).
The deposit covers about 22,000 reagents; shown is a random part of those that have a named target and a result. Of all reagents, 403 (1.9%) are marked active. 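Unnormalised raw counts per well; ratio z-scores behind the hit calls and whether each hit raises or lowers signal are not deposited.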 Reagents against one gene are numbered here. A plus sign joins genes that one reagent is predicted to hit. No sequences are given here. The record does not give: the amount of reagent.

- Assay: 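Genes whose knock-down alters Notch-dependent transcription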 (primary screen)
- System: Drosophila Kc167 cells
- Reagent: long dsRNA against Drosophila genes
- Duration: about 5 days (4 days dsRNA, then 24 h after transfection)
- Treatment: transfection of constitutively active membrane-tethered Notch lacking the extracellular domain, read 24 h later
- Detection: 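Firefly luciferase from an E(spl)m3 reporter with active Notch, plus control-promoter and uninduced reporter wells for normalisation; unnormalised counts, duplicate wells a and b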
- Reading the numbers: induced reporter light, run 1, well a and induced reporter light, run 1, well b: higher = more light from the Notch target reporter with active Notch; control promoter light, run 1, well a and control promoter light, run 1, well b: higher = more light from the viral control promoter (cell number, transfection, viability); uninduced reporter light, run 1, well a: higher = more light from the Notch target reporter without active Notch
- Active means: 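Hit if the duplicate-averaged log2 ratio of induced to control-promoter light gives a plate-wise z beyond ±2, or induced to uninduced beyond ±1.8; weak-control or discordant-duplicate wells dropped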
- Calls: active = modifier hit (raised or lowered Notch signal); inactive = not a hit

| predicted target | reagent | induced reporter light, run 1, well a | induced reporter light, run 1, well b | control promoter light, run 1, well a | control promoter light, run 1, well b | uninduced reporter light, run 1, well a | Outcome |
| --- | --- | --- | --- | --- | --- | --- | --- |
| CG10283 | 1 | 2.92e5 | 2.64e5 | 2.44e5 | 2.44e5 | 18145 | inactive |
| Usp39 | 1 | 1.04e5 | 92230 | 76630 | 45865 | 6925 | inactive |
| CG6026 | 1 | 1.68e5 | 1.42e5 | 1.73e5 | 1.81e5 | 12130 | inactive |
| CG4287 | 1 | 1.77e5 | 1.96e5 | 2.57e5 | 2.86e5 | 12510 | inactive |
| CG12229 | 1 | 1.36e5 | 1.33e5 | 1.89e5 | 1.44e5 | 6730 | inactive |
| CG9775 | 1 | 1.37e5 | 1.39e5 | 1.09e5 | 1.31e5 | 9565 | inactive |
| CG9775 | 2 | – | – | – | – | – | active |
| CG15366 (retired record) | 1 | 1.27e5 | 1.45e5 | 2.56e5 | 2.66e5 | 10390 | inactive |
| Spase22-23 | 1 | 1.34e5 | 1.35e5 | 1.51e5 | 1.65e5 | 11870 | inactive |
| Mct1 | 1 | 1.13e5 | 1.09e5 | 1.77e5 | 2.00e5 | 10250 | inactive |
| polybromo | 1 | 1.73e5 | 2.14e5 | 3.58e5 | 3.71e5 | 17885 | active |
| CG10338 | 1 | 58685 | 48960 | 66400 | 84580 | 4075 | inactive |
| CG6790 | 1 | 1.57e5 | 2.17e5 | 1.11e5 | 82280 | 13355 | inactive |
| hng3 | 1 | 1.69e5 | 1.70e5 | 2.88e5 | 2.96e5 | 8095 | inactive |
| CG7991 | 1 | 1.37e5 | 1.59e5 | 1.81e5 | 2.25e5 | 7090 | inactive |
| CG5539 | 1 | 2.45e5 | 2.07e5 | 2.30e5 | 2.26e5 | 15955 | inactive |
| CG5440 | 1 | 1.12e5 | 83885 | 1.06e5 | 67510 | 9315 | inactive |
| Tengl1 | 1 | 1.65e5 | 1.72e5 | 1.17e5 | 64875 | 11915 | inactive |
| morgue | 1 | 2.26e5 | 2.17e5 | 1.77e5 | 2.11e5 | 18115 | inactive |
| CG15650 | 1 | 55020 | 32460 | 41020 | 41395 | 1775 | inactive |
| CG4622 | 1 | 2.01e5 | 1.71e5 | 1.29e5 | 1.79e5 | 13700 | inactive |
| CG14667 | 1 | 85355 | 88375 | 52215 | 60695 | 5300 | inactive |
| csul | 1 | 1.25e5 | 1.02e5 | 1.30e5 | 1.29e5 | 9455 | inactive |
| CG1979 | 1 | 1.56e5 | 1.42e5 | 1.07e5 | 96315 | 11065 | inactive |
| mbm + CG11555 | 1 | 1.31e5 | 1.10e5 | 79900 | 63340 | 9165 | inactive |
| SmE | 1 | 40055 | 47615 | 36070 | 42860 | 3850 | inactive |
| CG9752 | 1 | 1.97e5 | 2.25e5 | 1.83e5 | 1.88e5 | 16340 | inactive |
| CG13031 | 1 | 1.72e5 | 1.59e5 | 2.30e5 | 2.15e5 | 8450 | inactive |
| CR11023 | 1 | 1.34e5 | 1.24e5 | 1.05e5 | 59870 | 9025 | inactive |
| Vps29 | 1 | 1.63e5 | 2.18e5 | 2.20e5 | 2.22e5 | 16590 | inactive |
| fd96Ca | 1 | 1.58e5 | 1.21e5 | 1.80e5 | 1.73e5 | 10410 | inactive |
| CG17362 | 1 | 1.61e5 | 1.93e5 | 3.02e5 | 2.15e5 | 8475 | inactive |
| ng3 | 1 | 93850 | 82985 | 1.18e5 | 1.63e5 | 6350 | inactive |
| CG14180 (retired record) | 1 | 58070 | 43535 | 59565 | 71345 | 4135 | inactive |
| CG14113 | 1 | 1.46e5 | 1.20e5 | 1.33e5 | 1.29e5 | 6450 | inactive |
| CG9175 | 1 | 2.19e5 | 2.24e5 | 2.47e5 | 2.15e5 | 18545 | inactive |
| CG31419 | 1 | 1.80e5 | 1.81e5 | 2.11e5 | 2.49e5 | 19525 | active |
| CG9902 | 1 | 54370 | 39815 | 60305 | 42405 | 6640 | inactive |
| CG6345 | 1 | 77030 | 77670 | 71955 | 64545 | 4035 | inactive |
| CG9928 | 1 | 1.24e5 | 1.59e5 | 1.25e5 | 1.35e5 | 11445 | inactive |
| CG2209 | 1 | 1.08e5 | 1.15e5 | 1.97e5 | 2.05e5 | 7742 | inactive |
| homer | 1 | 1.51e5 | 1.48e5 | 1.57e5 | 2.20e5 | 11495 | inactive |
| Listericin | 1 | 1.62e5 | 1.81e5 | 2.43e5 | 2.91e5 | 16205 | inactive |
| Npc1b | 1 | 91545 | 90330 | 1.04e5 | 1.10e5 | 9975 | inactive |
| CG31388 | 1 | 1.23e5 | 1.55e5 | 84390 | 84760 | 10478 | inactive |
| T48 | 1 | 1.46e5 | 1.68e5 | 2.15e5 | 1.64e5 | 13085 | inactive |
| CG42564 | 1 | 91115 | 94095 | 98815 | 63545 | 8325 | inactive |
| smal | 1 | 1.81e5 | 1.44e5 | 1.87e5 | 1.30e5 | 9255 | inactive |
| smal | 2 | 2.21e5 | 1.77e5 | 1.87e5 | 1.44e5 | 12595 | inactive |
| smal | 3 | 72490 | 56260 | 64290 | 60275 | 3865 | inactive |
| smal | 4 | 1.67e5 | 1.26e5 | 1.55e5 | 1.76e5 | 10370 | inactive |
| Jhedup | 1 | 52080 | 49630 | 40225 | 46940 | 5480 | inactive |
| CR32745 | 1 | 84515 | 70520 | 77820 | 69330 | 5420 | inactive |
| CG31637 | 1 | 1.01e5 | 1.06e5 | 1.14e5 | 99575 | 8170 | inactive |
| CG31637 | 2 | 1.26e5 | 1.31e5 | 1.51e5 | 1.77e5 | 7350 | inactive |
| CG15118 | 1 | 1.45e5 | 1.67e5 | 2.40e5 | 3.38e5 | 12360 | inactive |
| Pdi | 1 | 1.69e5 | 1.44e5 | 2.27e5 | 1.93e5 | 5550 | inactive |
| CG18249 | 1 | 1.39e5 | 1.17e5 | 97855 | 83870 | 11200 | inactive |
| ptc | 1 | 21135 | 28960 | 38110 | 48165 | 2230 | inactive |
| ptc | 2 | 1.80e5 | 2.09e5 | 2.19e5 | 2.29e5 | 16260 | inactive |
| CG31259 | 1 | 96530 | 1.04e5 | 98475 | 60650 | 5660 | inactive |
| CG30046 | 1 | 86350 | 84970 | 1.12e5 | 1.19e5 | 8130 | inactive |
| Slimp | 1 | 1.60e5 | 1.74e5 | 2.16e5 | 2.04e5 | 14220 | inactive |
| zld | 1 | 53770 | 66120 | 38960 | 57365 | 9140 | inactive |
| zld | 2 | – | – | – | – | – | inactive |

Sorted by “induced reporter light, run 1, well b” (high to low): 4 of the entries above
| predicted target | reagent | induced reporter light, run 1, well a | induced reporter light, run 1, well b | control promoter light, run 1, well a | control promoter light, run 1, well b | uninduced reporter light, run 1, well a | Outcome |
| --- | --- | --- | --- | --- | --- | --- | --- |
| CG31419 | 1 | 1.80e5 | 1.81e5 | 2.11e5 | 2.49e5 | 19525 | active |
| CG9928 | 1 | 1.24e5 | 1.59e5 | 1.25e5 | 1.35e5 | 11445 | inactive |
| CG6345 | 1 | 77030 | 77670 | 71955 | 64545 | 4035 | inactive |
| CG9902 | 1 | 54370 | 39815 | 60305 | 42405 | 6640 | inactive |
